PubChem BioAssay AID248 (DTP/NCI, 2004)
The list is a part of this screen's results and no random one: it is rich in T/C values a quarter to a half above the control, in often repeated tests (any T/C) and in doses without a T/C. Other doses and runs of a compound stand elsewhere. T/C: endpoint of the treated group in % of that of the vehicle group. Some entries give survivors of the animals treated and no T/C: the source files T/C as zero there, which appears to mark a toxic dose or a test without result, not a measured value. Some survivor counts are full or nearly so, which does not show that the dose was tolerated: survival well below the control is almost never listed, so the zero probably covers shortened survival too. Counts of survivors are from the toxicity check (mostly the fifth day) where no day follows; animals may have died later. Schedule codes are those of the source, read here as Q, the interval in days (D) or hours (H), X, the number of doses. Some entries were tested several times; their values stand side by side, smallest first. Some schedule codes hold Z or #, which are not explained here. For survival time, this PubChem deposit counts one and a half times the control or more as active, and values a quarter to a half above the control carry no call in these data; other NCI protocols may use other cut-offs.

System: L1210 leukemia ip in BDF1 mice, survival T/C
Assay: NCI In Vivo Anticancer Drug Screen. Data for tumor model L1210 Leukemia (intraperitoneal) in B6D2F1 (BDF1) mice
Conditions: T/C endpoint: mean survival time, higher T/C = longer survival

Question: `O=NN(CCCl)C(=O)NC1CC2CCC1C2` (centres undefined) was tested. Which survivor count (dose: 2.08 mg/kg/injection, schedule: Q#B X Z (ip), vehicle: other) did it give?
Answer: 4 of 6

Question: And the T/C (dose: 3.1 mg/kg/injection, schedule: Q01DX015 (ip), vehicle: other)?
Answer: 142 % of control

Question: And the T/C (dose: 4.0 mg/kg/injection, schedule: Q01DX005 (ip), vehicle: carboxymethylcellulose (CMC))?
Answer: 137 % of control

Question: What about the T/C (dose: 4.0 mg/kg/injection, schedule: Q01DX009 (ip), vehicle: carboxymethylcellulose (CMC)) of the same compound?
Answer: 125 % of control

Question: What about the survivor count (dose: 4.16 mg/kg/injection, schedule: Q#B X Z (ip), vehicle: other) of the same compound?
Answer: 4 of 6

Question: What about the T/C (dose: 4.9 mg/kg/injection, schedule: Q01DX015 (ip), vehicle: other) of the same compound?
Answer: 136 % of control

Question: And the T/C (dose: 6.2 mg/kg/injection, schedule: Q02DX008 (ip), vehicle: other)?
Answer: 127 and 140 % of control

Question: What about the T/C (dose: 6.25 mg/kg/injection, schedule: Q01DX009 (oral), vehicle: carboxymethylcellulose (CMC)) of the same compound?
Answer: 127 % of control

Question: What about the survivor count (dose: 8.0 mg/kg/injection, schedule: Q01DX005 (ip), vehicle: carboxymethylcellulose (CMC)) of the same compound?
Answer: 0 of 10

Question: And the T/C (dose: 10.0 mg/kg/injection, schedule: Q## X032 (ip), vehicle: other)?
Answer: 130 % of control

Question: And the T/C (dose: 12.5 mg/kg/injection, schedule: Q01DX001 (im), vehicle: other)?
Answer: 137 % of control

Question: And the T/C (dose: 12.5 mg/kg/injection, schedule: Q01DX001 (ip), vehicle: other)?
Answer: 137 % of control

Question: And the T/C (dose: 12.5 mg/kg/injection, schedule: Q01DX001 (iv), vehicle: other)?
Answer: 143 % of control

Question: What about the T/C (dose: 12.5 mg/kg/injection, schedule: Q01DX001 (oral), vehicle: other) of the same compound?
Answer: 135 % of control

Question: And the T/C (dose: 14.5 mg/kg/injection, schedule: Q01DX001 (ip), vehicle: other)?
Answer: 128 and 131 % of control

Question: And the T/C (dose: 18.0 mg/kg/injection, schedule: Q01DX001 (ip), vehicle: carboxymethylcellulose (CMC))?
Answer: 141 and 142 % of control

Question: And the T/C (dose: 23.0 mg/kg/injection, schedule: Q## X032 (ip), vehicle: other)?
Answer: 132 % of control

Question: And the T/C (dose: 25.0 mg/kg/injection, schedule: Q01DX001 (iv), vehicle: other)?
Answer: 143 % of control

Question: And the T/C (dose: 26.0 mg/kg/injection, schedule: Q01DX001 (ip), vehicle: other, evaluated on day 45)?
Answer: 391 and 534 % of control

Question: What about the T/C (dose: 26.0 mg/kg/injection, schedule: Q01DX001 (ip), vehicle: other, evaluated on day 46) of the same compound?
Answer: 545 and 645 % of control

Question: What about the T/C (dose: 32.0 mg/kg/injection, schedule: Q01DX009 (sc), vehicle: carboxymethylcellulose (CMC)) of the same compound?
Answer: 130 % of control

Question: And the survivor count (dose: 33.33 mg/kg/injection, schedule: Q#B X Z (ip), vehicle: other)?
Answer: 3 of 6

Question: And the T/C (dose: 39.0 mg/kg/injection, schedule: Q01DX001 (ip), vehicle: other, evaluated on day 45)?
Answer: 526 and 581 % of control

Question: What about the T/C (dose: 39.0 mg/kg/injection, schedule: Q01DX001 (ip), vehicle: other, evaluated on day 46) of the same compound?
Answer: 576 and 681 % of control

Question: What about the T/C (dose: 39.0 mg/kg/injection, schedule: Q01DX001 (ip), vehicle: other, run until all animals had died) of the same compound?
Answer: 348 % of control

Question: What about the T/C (dose: 50.0 mg/kg/injection, schedule: Q01DX017 (ip), vehicle: carboxymethylcellulose (CMC)) of the same compound?
Answer: 137 % of control

Question: What about the T/C (dose: 50.0 mg/kg/injection, schedule: Q03DX Z (ip), vehicle: other) of the same compound?
Answer: 134 % of control

Question: What about the T/C (dose: 58.0 mg/kg/injection, schedule: Q01DX001 (ip), vehicle: other, evaluated on day 45) of the same compound?
Answer: 494 and 527 % of control

Question: And the T/C (dose: 58.0 mg/kg/injection, schedule: Q01DX001 (ip), vehicle: other, evaluated on day 46)?
Answer: 679 and 783 % of control

Question: And the T/C (dose: 58.0 mg/kg/injection, schedule: Q01DX001 (ip), vehicle: other, run until all animals had died)?
Answer: 95, 348, 355 % of control

Question: And the T/C (dose: 64.0 mg/kg/injection, schedule: Q01DX009 (sc), vehicle: carboxymethylcellulose (CMC))?
Answer: 130 % of control

Question: And the survivor count (dose: 66.66 mg/kg/injection, schedule: Q#B X Z (ip), vehicle: other)?
Answer: 0 of 6

Question: And the T/C (dose: 87.0 mg/kg/injection, schedule: Q01DX001 (ip), vehicle: other, evaluated on day 45)?
Answer: 321 and 417 % of control

Question: What about the T/C (dose: 87.0 mg/kg/injection, schedule: Q01DX001 (ip), vehicle: other, evaluated on day 46) of the same compound?
Answer: 357 and 676 % of control

Question: What about the T/C (dose: 87.0 mg/kg/injection, schedule: Q01DX001 (ip), vehicle: other, run until all animals had died) of the same compound?
Answer: 283 % of control

Question: What about the T/C (dose: 100.0 mg/kg/injection, schedule: Q01DX001 (ip), vehicle: other) of the same compound?
Answer: 128 % of control

Question: And the T/C (dose: 100.0 mg/kg/injection, schedule: Q01DX005 (oral), vehicle: carboxymethylcellulose (CMC))?
Answer: 144 % of control

Question: And the survivor count (dose: 100.0 mg/kg/injection, schedule: Q03DX Z (ip), vehicle: other)?
Answer: 5 of 6

Question: And the T/C (dose: 100.0 mg/kg/injection, schedule: Q04DX005 (ip), vehicle: carboxymethylcellulose (CMC))?
Answer: 125 % of control

Question: What about the survivor count (dose: 100.0 mg/kg/injection, schedule: Q07DX Z (ip), vehicle: other) of the same compound?
Answer: 6 of 6

Question: And the survivor count (dose: 117.0 mg/kg/injection, schedule: Q01DX001 (oral), vehicle: other)?
Answer: 10 of 10

Question: What about the survivor count (dose: 128.0 mg/kg/injection, schedule: Q01DX009 (oral), vehicle: carboxymethylcellulose (CMC)) of the same compound?
Answer: 7 of 10

Question: And the survivor count (dose: 128.0 mg/kg/injection, schedule: Q04DX003 (ip), vehicle: carboxymethylcellulose (CMC))?
Answer: 10 of 10

Question: What about the T/C (dose: 130.0 mg/kg/injection, schedule: Q01DX001 (ip), vehicle: other, evaluated on day 45) of the same compound?
Answer: 108 and 184 % of control

Question: And the T/C (dose: 130.0 mg/kg/injection, schedule: Q01DX001 (ip), vehicle: other, evaluated on day 46)?
Answer: 113 and 125 % of control

Question: And the survivor count (dose: 139.0 mg/kg/injection, schedule: Q01DX001 (ip), vehicle: carboxymethylcellulose (CMC))?
Answer: 9 of 10

Question: And the survivor count (dose: 200.0 mg/kg/injection, schedule: Q01DX001 (ip), vehicle: other)?
Answer: 4 of 6

Question: What about the survivor count (dose: 200.0 mg/kg/injection, schedule: Q01DX001 (ip), vehicle: saline) of the same compound?
Answer: 4 of 10

Question: And the survivor count (dose: 200.0 mg/kg/injection, schedule: Q01DX001 (oral), vehicle: other)?
Answer: 5 of 6

Question: And the T/C (dose: 200.0 mg/kg/injection, schedule: Q01DX001 (sc), vehicle: other)?
Answer: 128 % of control

Question: What about the survivor count (dose: 200.0 mg/kg/injection, schedule: Q03DX Z (ip), vehicle: other) of the same compound?
Answer: 5 of 6

Question: And the survivor count (dose: 200.0 mg/kg/injection, schedule: Q07DX Z (ip), vehicle: other)?
Answer: 6 of 6

Question: And the survivor count (dose: 256.0 mg/kg/injection, schedule: Q01DX001 (ip), vehicle: carboxymethylcellulose (CMC))?
Answer: 9 of 10

Question: What about the survivor count (dose: 256.0 mg/kg/injection, schedule: Q01DX009 (oral), vehicle: carboxymethylcellulose (CMC)) of the same compound?
Answer: 6 of 10

Question: And the survivor count (dose: 256.0 mg/kg/injection, schedule: Q04DX003 (ip), vehicle: carboxymethylcellulose (CMC))?
Answer: 8 of 10

Question: And the survivor count (dose: 375.0 mg/kg/injection, schedule: Q01DX001 (ip), vehicle: carboxymethylcellulose (CMC))?
Answer: 2 of 6

Question: What about the survivor count (dose: 400.0 mg/kg/injection, schedule: Q01DX001 (im), vehicle: other) of the same compound?
Answer: 3 of 6

Question: And the survivor count (dose: 400.0 mg/kg/injection, schedule: Q01DX001 (ip), vehicle: other)?
Answer: 0 of 6

Question: What about the survivor count (dose: 400.0 mg/kg/injection, schedule: Q01DX001 (iv), vehicle: other) of the same compound?
Answer: 1 of 6

Question: And the survivor count (dose: 400.0 mg/kg/injection, schedule: Q01DX001 (oral), vehicle: other)?
Answer: 6 of 6

Question: And the survivor count (dose: 400.0 mg/kg/injection, schedule: Q01DX001 (sc), vehicle: other)?
Answer: 5 of 6

Question: What about the survivor count (dose: 400.0 mg/kg/injection, schedule: Q03DX Z (ip), vehicle: other) of the same compound?
Answer: 0 of 6

Question: What about the survivor count (dose: 400.0 mg/kg/injection, schedule: Q07DX Z (ip), vehicle: other) of the same compound?
Answer: 0 of 6

Question: And the survivor count (dose: 512.0 mg/kg/injection, schedule: Q01DX001 (oral), vehicle: carboxymethylcellulose (CMC))?
Answer: 9 of 10

Question: What about the survivor count (dose: 800.0 mg/kg/injection, schedule: Q01DX001 (im), vehicle: other) of the same compound?
Answer: 1 of 6

Question: And the survivor count (dose: 800.0 mg/kg/injection, schedule: Q01DX001 (ip), vehicle: other)?
Answer: 0 of 6 and 6 of 6

Question: What about the survivor count (dose: 800.0 mg/kg/injection, schedule: Q01DX001 (oral), vehicle: other) of the same compound?
Answer: 2 of 6

Question: And the survivor count (dose: 800.0 mg/kg/injection, schedule: Q01DX001 (sc), vehicle: other)?
Answer: 3 of 6

Question: What about the survivor count (dose: 800.0 mg/kg/injection, schedule: Q03DX Z (ip), vehicle: other) of the same compound?
Answer: 0 of 6

Question: What about the survivor count (dose: 800.0 mg/kg/injection, schedule: Q07DX Z (ip), vehicle: other) of the same compound?
Answer: 0 of 6

Question: And the T/C (dose: 250.0 micrograms/kg/injection, schedule: Q03HX008 (ip), vehicle: carboxymethylcellulose (CMC))?
Answer: 139 % of control

Question: And the T/C (dose: 2000.0 micrograms/kg/injection, schedule: Q03HX024 (ip), vehicle: carboxymethylcellulose (CMC))?
Answer: 127 % of control

Question: And the survivor count (dose: 4000.0 micrograms/kg/injection, schedule: Q03HX008 (ip), vehicle: carboxymethylcellulose (CMC))?
Answer: 6 of 10

Question: What about the survivor count (dose: 4000.0 micrograms/kg/injection, schedule: Q03HX024 (ip), vehicle: carboxymethylcellulose (CMC)) of the same compound?
Answer: 10 of 10
